From the supplement of paper PMC12819154, “High-throughput peptide-centric local stability assay extends protein–ligand identification to membrane proteins, tissues and bacteria” (Nature Structural & Molecular Biology, 2025) come the findings set out here.

Protein sequences, listed by entry. Tags and fused reporters are not part of them. Lines headed by an entry give the natural chain unless they say otherwise; changes in a name come on top.
UniProt Q5T8I3: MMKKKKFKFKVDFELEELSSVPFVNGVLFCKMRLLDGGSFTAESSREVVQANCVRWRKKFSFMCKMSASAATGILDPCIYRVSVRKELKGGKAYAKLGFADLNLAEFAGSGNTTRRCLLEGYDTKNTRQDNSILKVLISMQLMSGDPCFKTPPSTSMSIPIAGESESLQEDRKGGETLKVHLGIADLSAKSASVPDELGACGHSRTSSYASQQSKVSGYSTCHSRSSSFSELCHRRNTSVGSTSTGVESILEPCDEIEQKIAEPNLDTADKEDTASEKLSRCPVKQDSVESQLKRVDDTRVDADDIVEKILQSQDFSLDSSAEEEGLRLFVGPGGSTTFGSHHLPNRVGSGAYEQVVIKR
UniProt Q5T5D7: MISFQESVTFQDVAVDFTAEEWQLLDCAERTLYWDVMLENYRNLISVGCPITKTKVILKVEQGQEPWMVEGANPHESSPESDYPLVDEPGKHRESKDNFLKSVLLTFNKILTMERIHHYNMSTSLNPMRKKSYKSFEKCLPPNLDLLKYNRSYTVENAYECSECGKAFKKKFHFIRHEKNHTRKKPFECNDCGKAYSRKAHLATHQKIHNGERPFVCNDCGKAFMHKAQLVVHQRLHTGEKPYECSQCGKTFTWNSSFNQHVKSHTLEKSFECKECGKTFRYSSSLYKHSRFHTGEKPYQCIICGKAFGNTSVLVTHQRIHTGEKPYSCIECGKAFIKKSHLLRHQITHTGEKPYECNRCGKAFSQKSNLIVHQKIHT
UniProt Q5T6C5: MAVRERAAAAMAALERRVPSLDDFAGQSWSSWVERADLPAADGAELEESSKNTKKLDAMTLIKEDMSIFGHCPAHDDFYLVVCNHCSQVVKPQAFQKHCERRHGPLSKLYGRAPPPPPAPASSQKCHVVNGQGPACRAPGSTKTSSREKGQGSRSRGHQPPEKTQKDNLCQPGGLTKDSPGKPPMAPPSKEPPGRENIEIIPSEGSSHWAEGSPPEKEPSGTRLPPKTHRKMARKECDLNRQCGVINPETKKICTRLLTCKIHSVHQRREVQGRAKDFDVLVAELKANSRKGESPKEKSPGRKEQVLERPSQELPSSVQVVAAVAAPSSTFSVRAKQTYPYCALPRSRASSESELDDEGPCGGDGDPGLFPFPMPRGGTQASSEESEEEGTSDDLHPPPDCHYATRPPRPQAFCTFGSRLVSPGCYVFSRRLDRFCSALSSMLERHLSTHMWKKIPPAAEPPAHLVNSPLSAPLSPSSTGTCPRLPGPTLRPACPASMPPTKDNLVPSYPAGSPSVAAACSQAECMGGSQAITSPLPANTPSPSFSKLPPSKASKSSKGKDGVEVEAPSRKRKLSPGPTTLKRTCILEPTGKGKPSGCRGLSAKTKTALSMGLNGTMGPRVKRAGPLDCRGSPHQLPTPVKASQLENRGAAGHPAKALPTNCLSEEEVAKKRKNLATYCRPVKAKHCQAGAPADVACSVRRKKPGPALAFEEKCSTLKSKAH
UniProt Q49B96: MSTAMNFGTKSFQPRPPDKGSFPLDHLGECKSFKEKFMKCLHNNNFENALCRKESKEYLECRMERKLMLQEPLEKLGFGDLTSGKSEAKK
UniProt Q5TFE4: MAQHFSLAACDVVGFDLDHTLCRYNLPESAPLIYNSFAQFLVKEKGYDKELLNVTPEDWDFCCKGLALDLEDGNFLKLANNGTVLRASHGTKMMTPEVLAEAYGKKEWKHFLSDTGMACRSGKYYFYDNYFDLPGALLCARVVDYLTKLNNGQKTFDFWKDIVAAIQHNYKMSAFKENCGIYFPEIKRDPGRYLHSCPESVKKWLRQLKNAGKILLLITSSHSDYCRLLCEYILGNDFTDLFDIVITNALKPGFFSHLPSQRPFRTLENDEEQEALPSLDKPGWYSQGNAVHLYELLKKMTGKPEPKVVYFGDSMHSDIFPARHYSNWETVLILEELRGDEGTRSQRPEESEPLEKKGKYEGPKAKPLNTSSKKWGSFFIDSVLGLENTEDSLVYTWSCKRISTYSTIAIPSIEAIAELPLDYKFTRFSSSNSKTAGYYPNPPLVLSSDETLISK
UniProt Q53QZ3: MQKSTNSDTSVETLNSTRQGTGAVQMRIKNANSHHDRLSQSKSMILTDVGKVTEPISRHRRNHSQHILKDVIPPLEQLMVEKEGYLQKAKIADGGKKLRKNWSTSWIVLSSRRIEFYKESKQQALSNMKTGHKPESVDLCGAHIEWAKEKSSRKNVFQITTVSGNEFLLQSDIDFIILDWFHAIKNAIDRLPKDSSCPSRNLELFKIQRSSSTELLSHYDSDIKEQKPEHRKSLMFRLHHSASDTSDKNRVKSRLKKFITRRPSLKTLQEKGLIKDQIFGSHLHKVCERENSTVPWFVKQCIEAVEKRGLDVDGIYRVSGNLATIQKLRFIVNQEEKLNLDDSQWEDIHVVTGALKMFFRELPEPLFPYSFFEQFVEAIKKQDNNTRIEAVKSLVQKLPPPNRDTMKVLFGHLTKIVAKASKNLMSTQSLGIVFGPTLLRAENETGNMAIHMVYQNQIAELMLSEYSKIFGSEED
UniProt Q53EZ4: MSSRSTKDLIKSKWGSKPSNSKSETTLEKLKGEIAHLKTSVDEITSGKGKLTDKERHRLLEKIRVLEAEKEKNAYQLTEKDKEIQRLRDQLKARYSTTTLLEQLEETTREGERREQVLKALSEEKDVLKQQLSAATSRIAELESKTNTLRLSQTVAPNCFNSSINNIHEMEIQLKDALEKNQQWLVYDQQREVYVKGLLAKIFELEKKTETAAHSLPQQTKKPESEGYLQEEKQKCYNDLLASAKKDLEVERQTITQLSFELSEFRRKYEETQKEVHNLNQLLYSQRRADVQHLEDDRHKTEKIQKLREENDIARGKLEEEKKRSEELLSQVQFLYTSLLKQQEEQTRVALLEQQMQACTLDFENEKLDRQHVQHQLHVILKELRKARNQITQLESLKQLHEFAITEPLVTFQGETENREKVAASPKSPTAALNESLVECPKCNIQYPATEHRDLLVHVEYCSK
UniProt Q5T2N8: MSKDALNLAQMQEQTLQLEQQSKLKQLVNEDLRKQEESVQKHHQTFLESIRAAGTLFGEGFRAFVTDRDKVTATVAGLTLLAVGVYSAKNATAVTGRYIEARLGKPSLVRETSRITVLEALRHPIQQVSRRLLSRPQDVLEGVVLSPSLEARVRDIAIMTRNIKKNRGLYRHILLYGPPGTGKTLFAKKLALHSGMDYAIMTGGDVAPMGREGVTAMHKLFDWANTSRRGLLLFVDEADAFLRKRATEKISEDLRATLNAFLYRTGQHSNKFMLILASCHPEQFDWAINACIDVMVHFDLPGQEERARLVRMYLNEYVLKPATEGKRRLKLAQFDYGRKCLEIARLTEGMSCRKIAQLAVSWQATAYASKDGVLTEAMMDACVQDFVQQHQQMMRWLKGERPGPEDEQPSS
UniProt Q5HYJ3: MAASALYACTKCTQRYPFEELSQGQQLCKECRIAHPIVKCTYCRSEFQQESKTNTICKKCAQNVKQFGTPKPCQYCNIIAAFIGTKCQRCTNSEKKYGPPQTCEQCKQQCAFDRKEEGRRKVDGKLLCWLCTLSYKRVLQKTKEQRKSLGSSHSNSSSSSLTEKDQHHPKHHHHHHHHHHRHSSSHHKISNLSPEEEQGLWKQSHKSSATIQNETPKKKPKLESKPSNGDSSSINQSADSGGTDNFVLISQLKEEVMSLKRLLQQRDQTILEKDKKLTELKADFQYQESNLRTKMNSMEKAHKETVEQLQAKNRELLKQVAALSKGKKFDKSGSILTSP
UniProt Q5VV52: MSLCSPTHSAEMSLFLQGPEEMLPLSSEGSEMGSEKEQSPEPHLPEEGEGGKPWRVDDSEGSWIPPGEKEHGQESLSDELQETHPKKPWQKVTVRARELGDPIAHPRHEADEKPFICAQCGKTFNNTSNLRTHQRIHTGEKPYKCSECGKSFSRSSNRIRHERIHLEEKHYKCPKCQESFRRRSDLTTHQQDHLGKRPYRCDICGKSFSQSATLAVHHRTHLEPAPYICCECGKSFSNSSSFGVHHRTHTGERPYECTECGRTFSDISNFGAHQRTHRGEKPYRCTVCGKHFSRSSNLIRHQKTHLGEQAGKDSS
UniProt Q5BJF6: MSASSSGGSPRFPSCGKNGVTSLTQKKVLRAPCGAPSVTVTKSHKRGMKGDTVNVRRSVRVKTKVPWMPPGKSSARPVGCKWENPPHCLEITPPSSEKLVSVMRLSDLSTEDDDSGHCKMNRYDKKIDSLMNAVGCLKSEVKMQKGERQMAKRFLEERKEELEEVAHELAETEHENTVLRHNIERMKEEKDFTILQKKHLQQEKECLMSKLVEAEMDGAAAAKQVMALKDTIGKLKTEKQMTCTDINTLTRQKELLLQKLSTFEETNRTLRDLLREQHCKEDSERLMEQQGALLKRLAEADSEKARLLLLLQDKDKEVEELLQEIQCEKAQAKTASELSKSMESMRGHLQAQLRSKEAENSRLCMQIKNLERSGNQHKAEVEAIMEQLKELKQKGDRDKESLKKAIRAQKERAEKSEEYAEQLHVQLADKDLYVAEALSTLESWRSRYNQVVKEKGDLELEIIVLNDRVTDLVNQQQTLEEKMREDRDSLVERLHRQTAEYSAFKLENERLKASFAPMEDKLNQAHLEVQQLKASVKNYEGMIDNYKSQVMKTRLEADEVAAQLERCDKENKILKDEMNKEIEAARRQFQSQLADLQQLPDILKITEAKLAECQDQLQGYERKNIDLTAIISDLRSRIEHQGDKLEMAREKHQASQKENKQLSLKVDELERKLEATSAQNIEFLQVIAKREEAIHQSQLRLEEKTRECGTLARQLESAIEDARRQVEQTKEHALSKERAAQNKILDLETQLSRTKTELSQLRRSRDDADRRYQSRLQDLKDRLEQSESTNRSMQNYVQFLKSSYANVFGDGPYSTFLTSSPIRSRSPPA

The other results are listed elsewhere or left out. Small differences around the control level are noise.

Compound in this test: CN[C@@H]1C[C@H]2O[C@@](C)([C@@H]1OC)n1c3ccccc3c3c4c(c5c6ccccc6n2c5c31)C(=O)NC4 [staurosporine]
Description: log2 fold change of tryptic peptide abundance, ligand vs vehicle (limited proteolysis) (log2 ratio); higher = more trypsin-susceptible (destabilized). Conditions: ligand concentration: 20 uM; sample: K562 cleared lysate; digestion: 4 min, 22 C (HT-PELSA RT4min, Orbitrap Astral).
“FAM102B (peptide sequence: IAEPNLDTADKEDTASEKLSR, peptide start residue: 261) (UniProt Q5T8I3)”: the log2 fold change is -0.92.
Under “UniProt Q5T5D7 (peptide sequence: NLISVGCPITK, peptide start residue: 43)” stands 0.135; under “ATXN7L2 (peptide sequence: APPPPPAPASSQK, peptide start residue: 113) (UniProt Q5T6C5)”, 0.327; under “COX19 (peptide sequence: STAMNFGTK, peptide start residue: 2) (UniProt Q49B96)”, -0.162.
Consider “NT5DC1 (peptide sequence: SQRPEESEPLEK, peptide start residue: 345) (UniProt Q5TFE4)”, for which the log2 fold change is -0.0814.
Take “ARHGAP15 (peptide sequence: SMILTDVGK, peptide start residue: 43) (UniProt Q53QZ3)”: the log2 fold change stood at 0.33.
Regarding “CEP55 (peptide sequence: LKGEIAHLK, peptide start residue: 30) (UniProt Q53EZ4)”, the log2 fold change was -0.979.
Under “UniProt Q5T2N8 (peptide sequence: ITVLEALR, peptide start residue: 339)” stands -0.184; under “FAM76B (peptide sequence: SSATIQNETPK, peptide start residue: 207) (UniProt Q5HYJ3)”, -0.199.
Next, “ZNF691 (peptide sequence: SDLTTHQQDHLGK, peptide start residue: 184) (UniProt Q5VV52)”: 0.313; “ODF2 (peptide sequence: KHLQQEK, peptide start residue: 198) (UniProt Q5BJF6)”: 0.0965.
